Like-named read-outs stand apart in the source and are kept apart here. These are yes or no findings as the source states them, for the method shown. Binding seen in cells or lysates may run through a third protein. Some entries that bind do so weakly or less than the wild type. Tags and fused reporters may be left off the sequences shown.
Assays:
Experiment in all cases: split reporter
[1] = biological target: T1, full-length (FL) erlin-1-nSURF (human) (UniProt O75477)
T1 sequence: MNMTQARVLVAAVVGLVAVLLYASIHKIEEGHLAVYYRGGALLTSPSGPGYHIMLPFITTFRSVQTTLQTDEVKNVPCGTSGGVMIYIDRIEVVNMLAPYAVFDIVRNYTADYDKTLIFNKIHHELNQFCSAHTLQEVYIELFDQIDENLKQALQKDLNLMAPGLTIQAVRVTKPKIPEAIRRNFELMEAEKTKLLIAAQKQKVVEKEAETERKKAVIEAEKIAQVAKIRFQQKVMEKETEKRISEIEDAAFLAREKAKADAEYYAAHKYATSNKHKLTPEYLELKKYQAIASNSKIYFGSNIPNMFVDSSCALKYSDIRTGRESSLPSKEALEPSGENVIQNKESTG

[2] = biological target: full-length (FL) rabbit liver CYP1A2 tagged with a split SURF reporter (CYP1A2-cSURF; CYP1A2-nSURF) (rabbit) (UniProt P00187)
[3] = biological target: T1, full-length (FL) erlin-1-nSURF (human); remark: listed apart in the source
[4] = biological target: T2, full-length (FL) erlin-2-cSURF (human) (UniProt O94905)
T2 sequence: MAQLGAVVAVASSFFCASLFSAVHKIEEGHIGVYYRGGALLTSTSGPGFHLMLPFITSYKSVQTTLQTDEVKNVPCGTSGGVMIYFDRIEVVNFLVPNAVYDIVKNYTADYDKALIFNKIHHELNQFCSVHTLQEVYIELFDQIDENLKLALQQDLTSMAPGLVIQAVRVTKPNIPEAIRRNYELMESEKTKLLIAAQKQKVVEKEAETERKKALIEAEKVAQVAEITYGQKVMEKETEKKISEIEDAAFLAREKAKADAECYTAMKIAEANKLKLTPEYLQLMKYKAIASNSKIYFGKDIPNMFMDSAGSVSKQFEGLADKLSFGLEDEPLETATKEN

[5] = biological target: CYP1A2-NT (N1-33) signal-anchor subdomain tagged with a split SURF reporter (rabbit) (UniProt P00187)
[6] = biological target: T3, erlin-1-NT (N1-30)-nSURF (human) (UniProt O75477)
T3 sequence: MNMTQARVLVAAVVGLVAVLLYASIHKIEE

B1: full-length (FL) rabbit liver CYP1A2 tagged with a split SURF reporter (CYP1A2-cSURF; CYP1A2-nSURF) (enzyme, UniProt P00187 1-516)
chain: MAMSPAAPLSVTELLLVSAVFCLVFWAVRASRPKVPKGLKRLPGPWGWPLLGHLLTLGKNPHVALARLSRRYGDVFQIRLGSTPVVVLSGLDTIKQALVRQGDDFKGRPDLYSSSFITEGQSMTFSPDSGPVWAARRRLAQDSLKSFSIASNPASSSSCYLEEHVSQEAENLIGRFQELMAAVGRFDPYSQLVVSAARVIGAMCFGRRFPQGSEEMLDVVRNSSKFVETASSGSPVDFFPILRYLPNRPLQRFKDFNQRFLRFLQKTVREHYEDFDRNSIQDITGALFKHSEKNSKANSGLIPQEKIVNLVNDIFGAGFDTITTALSWSLMYLVTNPRRQRKIQEELDAVVGRARQPRLSDRPQLPYLEAFILELFRHTSFVPFTIPHSTTRDTTLNGFHIPKECCIFINQWQINHDPQLWGDPEEFRPERFLTADGAAINKPLSEKVTLFGLGKRRCIGETLARWEVFLFLAILLQRLEFSVPPGVPVDLTPIYGLTMKHPRCEHVQARPRFSDQ
With B1 the binding [1] was “binds”, the binding [2] was “binds” and the binding [3] was “binds”. The binding [4] was “binds”.

B2: CYP1A2-NT (N1-33) signal-anchor subdomain tagged with a split SURF reporter (domain or fragment, UniProt P00187 1-33)
chain: MAMSPAAPLSVTELLLVSAVFCLVFWAVRASRP
B2 was tested, and the binding [5] was “binds” and the binding [6] was “binds”.

B3: c-SURF-tagged ornithine decarboxylase 1 (ODC1-cSURF) (enzyme, UniProt P11926 1-461)
chain: MNNFGNEEFDCHFLDEGFTAKDILDQKINEVSSSDDKDAFYVADLGDILKKHLRWLKALPRVTPFYAVKCNDSKAIVKTLAATGTGFDCASKTEIQLVQSLGVPPERIIYANPCKQVSQIKYAANNGVQMMTFDSEVELMKVARAHPKAKLVLRIATDDSKAVCRLSVKFGATLRTSRLLLERAKELNIDVVGVSFHVGSGCTDPETFVQAISDARCVFDMGAEVGFSMYLLDIGGGFPGSEDVKLKFEEITGVINPALDKYFPSDSGVRIIAEPGRYYVASAFTLAVNIIAKKIVLKEQTGSDDEDESSEQTFMYYVNDGVYGSFNCILYDHAHVKPLLQKRPKPDEKYYSSSIWGPTCDGLDRIVERCDLPEMHVGDWMLFENMGAYTVAAASTFNGFQRPTIYYVMSGPAWQLMQQFQNPDFPPEVEEQDASTLPVSCAWESGMKRHRAACASASINV
In the case of B3, the binding [1] is reported as “no binding” and the binding [3] is reported as “no binding”.

Source: article doi:10.1101/2025.09.25.678692
